The source of these data is PubChem BioAssay AID2685 (National Center for Advancing Translational Sciences (NCATS), 2010).

This is one part of the list. Further columns of the screen follow, without active or inactive calls. The list favours compounds with an active or inconclusive main result. Words in brackets tell the shape of the fitted curve; partial curves, single points and poor fits give uncertain potencies.

The experiment is described as follows: qHTS Assay for Lipid Storage Modulators in Drosophila S3 Cells.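 For cell number change: cells counted by Cell Tracker Red CMTPX staining in the red channel.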 The settings on record: BODIPY lipid droplet fluorescence, 18-24 h; for cell number change: measured here: cell count max response, cells fed with added oleic acid. In short, it runs like this:
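Drosophila S3 cells loaded with oleic acid (400 uM, as added) and compounds at several concentrations; lipid droplets imaged by 488-nm laser-scanning cytometry, 500–530 nm intensity and object ratio to cell channel. Percent activity normalized to 20 uM Triacsin C.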
For orientation: Quantitative high-throughput screening tests each substance at several concentrations.

The mark [1] stands for this setting: measured here: cell number channel AC50, cells fed with added oleic acid.
Setting [2] is: measured here: lipid fluorescence (Fed channel) AC50, cells fed with added oleic acid.

For `COc1ccc(CCNC(=O)C2CCN(C(=O)c3ccc(F)cc3)CC2)cc1`, the cell number change is 1.32%.

Consider `O=C(NC1CCCCC1)c1ccc(Cn2cc(Cl)cn2)cc1`, for which the cell number change was determined as 34.4%. The AC50 under setting [1] was 1.46 µM [rising, full curve, poor fit]. Besides, the AC50 under setting [2] was 1.46 µM [rising, full curve].

As for `Cc1cccc(OCc2nnc(SC(C)C(=O)O)n2-c2ccccc2)c1` (stereo unspecified), the cell number change was -5.11%.

Turning to `O=C(NCc1ccccn1)c1ccc(Cl)c(S(=O)(=O)N2CCCCCC2)c1`, the half-maximal activity concentration (AC50) under setting [1] is 1.03 µM [rising, full curve, poor fit] and the half-maximal activity concentration (AC50) under setting [2] is 0.0116 µM [falling, full curve, poor fit].

As to `Cc1cc(C)n(CCNS(=O)(=O)c2ccc(Cl)cc2)n1`, the cell number change is -10.8%. Further, the concentration at half-maximal activity (AC50) under setting [2] was 18.4 µM [rising, partial curve].

On to `O=C(Nc1ccc2c(c1)OCCO2)c1ccc(Cl)c([N+](=O)[O-])c1`, for which the AC50 under setting [2] was 20.6 µM [falling, single point].

On to `Cc1ccc(NC(=O)CN2C(=O)NC3(CCCCCCC3)C2=O)cc1C`, for which the cell number change amounted to 1.31%. Further, the AC50 under setting [1] is 5.8 µM [rising, single point]. Also, the concentration at half-maximal activity (AC50) under setting [2] was 5.17 µM [rising, single point].

Take `O=C(Nc1ccc2c(c1)CCC2)C1CCCN(c2ncccn2)C1` (stereo unspecified): the cell number change was -37.7%. The half-maximal activity concentration (AC50) under setting [1] is 29.1 µM [falling, single point]. Under setting [2], the concentration at half-maximal activity (AC50) was 7.31 µM [falling, partial curve].

As for `Cc1ccc(NS(=O)(=O)c2ccc(C(=O)NCc3cccnc3)cc2)cc1`, the cell number change amounted to 37.8%. The AC50 under setting [1] was 2.06 µM [rising, full curve, poor fit]. Besides, the AC50 under setting [2] is 0.58 µM [falling, single point].

Consider `COc1ccc(CNc2nc3c(c(=O)[nH]c(=O)n3C)n2Cc2ccccc2C)cc1`, for which the cell number change worked out at 23.2%. For the same compound, the AC50 under setting [2] was 0.651 µM [rising, full curve, poor fit].

As for `CCNC(=S)N=Nc1c(O)n(Cc2ccc(Cl)cc2)c2ccccc12`, the cell number change came to 8.94%. Further, the AC50 under setting [2] is 2.06 µM [rising, single point].

For the compound `Cc1oc(CC(C)C)c(CN2CCCC2)c1C(=O)O`, the cell number change was -40.2%. For the same compound, the AC50 under setting [1] was 0.00517 µM [falling, full curve]. Moreover, the half-maximal activity concentration (AC50) under setting [2] was 1.3 µM [falling, full curve].

Turning to `Cc1ccc2oc(C(=O)N(C)Cc3ccc(C)o3)c(C)c2c1`, the cell number change is -25.7%. Also, the concentration at half-maximal activity (AC50) under setting [2] is 2.31 µM [falling, partial curve].

For the compound `Cc1ccc(S(=O)(=O)N2CCC(C(=O)N3CCC[C@H]3C(=O)NCc3ccccc3)CC2)cc1`, the cell number change worked out at 15.5%.

With `COc1cc(SC)ccc1C(=O)Nc1ccc2c(c1)CCN2S(C)(=O)=O`, the cell number change was 6.64%. The AC50 under setting [1] is 0.13 µM [rising, full curve, poor fit].

In the case of `COc1cc(OC)c(C(=O)Nc2ccc(N(C)C)cc2)cc1OC`, the cell number change is -15.8%. Moreover, the concentration at half-maximal activity (AC50) under setting [2] was 16.4 µM [rising, partial curve].

`CCOc1ccc(NS(=O)(=O)c2ccc(OC)c(C)c2)cc1`: the cell number change is 49.7%. The AC50 under setting [1] was 6.51 µM [rising, partial curve, poor fit]. Under setting [2], the AC50 is 23.1 µM [rising, single point].

In the case of `O=[N+]([O-])c1cc(Cl)cc(/C=N/n2cnnc2)c1O`, the cell number change was -32.5%. Moreover, the half-maximal activity concentration (AC50) under setting [1] is 2.06 µM [falling, partial curve]. Besides, the concentration at half-maximal activity (AC50) under setting [2] is 6.51 µM [rising, partial curve, poor fit].

As for `NC(=O)c1ccc(NC(=O)CN2CCN(C(=O)c3ccco3)CC2)cc1`, the cell number change was 7.37%. Besides, the concentration at half-maximal activity (AC50) under setting [2] is 0.58 µM [rising, single point].

On to `CCOC(=O)C1(Cc2cccc(F)c2)CCN(C(=O)COC)CC1`, for which the cell number change is 10.4%. Moreover, the concentration at half-maximal activity (AC50) under setting [1] was 3.26 µM [falling, single point].

For `O=C(NN1CCOCC1)c1ccc(Br)s1`, the cell number change is -12%. The half-maximal activity concentration (AC50) under setting [1] is 5.17 µM [falling, single point]. For the same compound, under setting [2], the AC50 is 3.66 µM [falling, full curve].

In the case of `O=C1C(Cl)=C(NC2CCCCC2)C(=O)N1c1ccc(Cl)cc1`, the cell number change came to 3.81%. In addition, under setting [2], the half-maximal activity concentration (AC50) is 0.651 µM [rising, full curve, poor fit].

Consider `COC(=O)c1ccc(OC(=O)CCS(=O)(=O)c2ccc(C)cc2)cc1`, for which the cell number change was -0.105%. Moreover, the AC50 under setting [2] was 1.3 µM [falling, full curve, poor fit].

As for `C=CCn1c(SCc2cc(=O)n3ccsc3n2)nnc1C1CCCCC1`, the AC50 under setting [1] was 0.731 µM [rising, partial curve].

In the case of `O=S1(=O)CCOCCCN1Cc1ccc(Cl)cc1`, the cell number change was 32.7%. Besides, under setting [2], the AC50 was 25.9 µM [rising, single point].

With `COc1ccc(OC)c(Nc2c3ccccc3nc3ccccc23)c1`, the cell number change is -66.8%. The half-maximal activity concentration (AC50) under setting [1] is 18.4 µM [falling, single point]. Also, the AC50 under setting [2] was 18.4 µM [falling, single point].

Take `COc1cc(/C=N/N=C(N)N)ccc1OCc1ccc(Cl)cc1`: the cell number change is -1.1%. In addition, the AC50 under setting [1] was 3.26 µM [falling, single point]. Also, the AC50 under setting [2] is 4.11 µM [falling, single point].

On to `Cc1cc(C(F)F)n2ncc(C(=O)NCCc3ccccc3Cl)c2n1`, for which the cell number change was found to be 9.28%. The half-maximal activity concentration (AC50) under setting [2] was 6.51 µM [rising, single point].

As to `COc1ccc(OC)c(-n2cc3c(=O)n(C)c(=O)n(C)c3c2)c1`, the cell number change was found to be 57.3%. Further, under setting [1], the AC50 was 25.9 µM [rising, single point]. Further, the AC50 under setting [2] is 0.517 µM [rising, single point].

On to `Cc1ccc(/C=C/C(=O)O)cc1S(=O)(=O)NCc1cccnc1`, for which the half-maximal activity concentration (AC50) under setting [2] was 29.1 µM [rising, single point].

For the compound `Cc1ccc(C2CN(CCC(N)=O)C(=O)CO2)cc1` (stereo unspecified), the cell number change was -34.4%. In addition, the half-maximal activity concentration (AC50) under setting [2] was 29.1 µM [falling, single point].

`Cc1ccc2c(c1)c(N=O)c(O)n2Cc1ccc(Cl)cc1`: the cell number change was -68.8%. Further, the half-maximal activity concentration (AC50) under setting [1] is 16.4 µM [falling, single point].

Take `COc1ccc(NC(=O)c2cccc3c2C(=O)N(C2CCCCC2)C3)cc1`: the AC50 under setting [2] was 0.13 µM [falling, single point].

With `CCOc1ccc(CCNS(=O)(=O)c2ccc3c(c2)NC(=O)CO3)cc1OCC`, the cell number change was -16.2%. Also, the half-maximal activity concentration (AC50) under setting [2] was 29.1 µM [rising, single point].

As for `O=C(Nc1ccc(F)cc1F)c1ccc(-n2cccn2)nc1`, the cell number change is -5.08%. The concentration at half-maximal activity (AC50) under setting [1] was 6.51 µM [rising, single point].

For `COc1ccc(C2CC(c3cccs3)=NN2C(=O)COC(=O)c2cncc(Br)c2)cc1OC` (stereo unspecified), the AC50 runs as follows: under setting [1], 0.58 µM [rising, single point]; under setting [2], 6.51 µM [rising, single point].

The AC50 is the concentration at which the activity in the assay is half-maximal. Read a high AC50 as weaker potency.
